The record followed here is the supplement of paper PMC11006884.

Protein sequences, listed by entry. Tags and fused reporters are not part of them. Lines headed by an entry give the natural chain unless they say otherwise; changes in a name come on top.
UniProt P11216: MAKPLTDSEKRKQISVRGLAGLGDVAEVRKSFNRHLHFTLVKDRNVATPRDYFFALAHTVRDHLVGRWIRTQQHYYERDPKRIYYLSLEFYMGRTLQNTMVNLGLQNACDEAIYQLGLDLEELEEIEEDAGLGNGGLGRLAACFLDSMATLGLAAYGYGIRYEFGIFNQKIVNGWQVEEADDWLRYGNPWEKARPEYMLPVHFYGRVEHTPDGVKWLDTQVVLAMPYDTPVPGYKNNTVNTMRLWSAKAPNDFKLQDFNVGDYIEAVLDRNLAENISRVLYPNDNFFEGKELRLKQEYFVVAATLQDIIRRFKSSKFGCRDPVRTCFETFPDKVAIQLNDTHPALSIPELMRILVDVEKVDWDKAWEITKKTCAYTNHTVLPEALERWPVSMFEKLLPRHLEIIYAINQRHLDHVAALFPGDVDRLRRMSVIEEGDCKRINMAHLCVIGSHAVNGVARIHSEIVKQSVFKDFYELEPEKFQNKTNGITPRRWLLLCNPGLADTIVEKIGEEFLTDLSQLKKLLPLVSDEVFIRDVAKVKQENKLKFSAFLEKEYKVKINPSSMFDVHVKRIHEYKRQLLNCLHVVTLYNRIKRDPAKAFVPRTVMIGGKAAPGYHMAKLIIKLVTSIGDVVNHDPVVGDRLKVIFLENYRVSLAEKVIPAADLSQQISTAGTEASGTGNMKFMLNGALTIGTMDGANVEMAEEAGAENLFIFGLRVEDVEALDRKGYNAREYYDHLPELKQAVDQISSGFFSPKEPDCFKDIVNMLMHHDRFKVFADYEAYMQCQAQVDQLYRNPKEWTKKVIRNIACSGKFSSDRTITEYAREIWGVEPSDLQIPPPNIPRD
UniProt P17655: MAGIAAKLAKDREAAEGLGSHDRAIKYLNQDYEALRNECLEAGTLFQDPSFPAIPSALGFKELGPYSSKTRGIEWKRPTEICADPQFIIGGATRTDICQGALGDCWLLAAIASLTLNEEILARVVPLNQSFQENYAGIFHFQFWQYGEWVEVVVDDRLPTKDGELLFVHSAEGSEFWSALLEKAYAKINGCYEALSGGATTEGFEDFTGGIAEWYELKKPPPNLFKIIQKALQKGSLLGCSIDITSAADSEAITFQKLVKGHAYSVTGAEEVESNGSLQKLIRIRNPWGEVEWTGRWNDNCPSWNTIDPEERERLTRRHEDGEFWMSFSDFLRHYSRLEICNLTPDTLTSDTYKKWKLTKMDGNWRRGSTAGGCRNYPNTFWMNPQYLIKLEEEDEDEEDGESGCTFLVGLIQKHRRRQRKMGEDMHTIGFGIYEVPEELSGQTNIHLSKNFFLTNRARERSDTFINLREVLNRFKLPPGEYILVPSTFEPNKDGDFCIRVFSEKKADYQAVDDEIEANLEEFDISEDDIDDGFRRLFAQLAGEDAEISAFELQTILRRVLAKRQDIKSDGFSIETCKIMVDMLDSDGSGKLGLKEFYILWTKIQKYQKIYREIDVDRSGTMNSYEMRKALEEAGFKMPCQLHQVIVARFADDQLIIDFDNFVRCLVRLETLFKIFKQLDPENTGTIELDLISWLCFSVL
UniProt P11413, whole entry, looked up: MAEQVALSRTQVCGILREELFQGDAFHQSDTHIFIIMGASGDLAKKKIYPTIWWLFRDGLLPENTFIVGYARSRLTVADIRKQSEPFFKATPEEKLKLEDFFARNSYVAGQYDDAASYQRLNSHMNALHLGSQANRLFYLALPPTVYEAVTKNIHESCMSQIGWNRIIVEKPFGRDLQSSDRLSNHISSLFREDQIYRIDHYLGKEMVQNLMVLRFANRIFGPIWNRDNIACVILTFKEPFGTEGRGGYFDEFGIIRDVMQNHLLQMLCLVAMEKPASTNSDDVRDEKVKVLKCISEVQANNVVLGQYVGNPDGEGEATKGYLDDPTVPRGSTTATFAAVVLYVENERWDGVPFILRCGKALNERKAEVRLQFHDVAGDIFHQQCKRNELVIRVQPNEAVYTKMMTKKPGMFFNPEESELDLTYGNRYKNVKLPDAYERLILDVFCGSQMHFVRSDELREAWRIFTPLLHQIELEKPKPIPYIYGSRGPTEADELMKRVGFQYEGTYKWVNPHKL
UniProt P11142, whole entry, looked up: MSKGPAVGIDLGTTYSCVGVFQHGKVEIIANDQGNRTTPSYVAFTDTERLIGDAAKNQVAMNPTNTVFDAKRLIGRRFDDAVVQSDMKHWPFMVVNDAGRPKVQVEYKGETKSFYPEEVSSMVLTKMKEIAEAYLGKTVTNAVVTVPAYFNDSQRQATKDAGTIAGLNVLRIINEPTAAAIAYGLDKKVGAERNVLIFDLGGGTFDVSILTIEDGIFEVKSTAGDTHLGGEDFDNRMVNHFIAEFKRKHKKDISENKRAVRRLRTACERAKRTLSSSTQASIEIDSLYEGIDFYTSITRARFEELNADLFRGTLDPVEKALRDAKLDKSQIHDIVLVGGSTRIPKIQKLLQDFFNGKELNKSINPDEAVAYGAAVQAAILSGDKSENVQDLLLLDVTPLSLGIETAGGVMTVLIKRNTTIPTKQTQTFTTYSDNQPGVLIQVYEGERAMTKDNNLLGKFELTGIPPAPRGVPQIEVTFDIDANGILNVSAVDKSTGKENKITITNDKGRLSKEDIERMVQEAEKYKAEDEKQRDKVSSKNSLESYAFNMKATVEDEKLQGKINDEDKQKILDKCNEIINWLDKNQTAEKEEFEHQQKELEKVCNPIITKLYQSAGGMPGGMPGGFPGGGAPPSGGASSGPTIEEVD
UniProt P07814: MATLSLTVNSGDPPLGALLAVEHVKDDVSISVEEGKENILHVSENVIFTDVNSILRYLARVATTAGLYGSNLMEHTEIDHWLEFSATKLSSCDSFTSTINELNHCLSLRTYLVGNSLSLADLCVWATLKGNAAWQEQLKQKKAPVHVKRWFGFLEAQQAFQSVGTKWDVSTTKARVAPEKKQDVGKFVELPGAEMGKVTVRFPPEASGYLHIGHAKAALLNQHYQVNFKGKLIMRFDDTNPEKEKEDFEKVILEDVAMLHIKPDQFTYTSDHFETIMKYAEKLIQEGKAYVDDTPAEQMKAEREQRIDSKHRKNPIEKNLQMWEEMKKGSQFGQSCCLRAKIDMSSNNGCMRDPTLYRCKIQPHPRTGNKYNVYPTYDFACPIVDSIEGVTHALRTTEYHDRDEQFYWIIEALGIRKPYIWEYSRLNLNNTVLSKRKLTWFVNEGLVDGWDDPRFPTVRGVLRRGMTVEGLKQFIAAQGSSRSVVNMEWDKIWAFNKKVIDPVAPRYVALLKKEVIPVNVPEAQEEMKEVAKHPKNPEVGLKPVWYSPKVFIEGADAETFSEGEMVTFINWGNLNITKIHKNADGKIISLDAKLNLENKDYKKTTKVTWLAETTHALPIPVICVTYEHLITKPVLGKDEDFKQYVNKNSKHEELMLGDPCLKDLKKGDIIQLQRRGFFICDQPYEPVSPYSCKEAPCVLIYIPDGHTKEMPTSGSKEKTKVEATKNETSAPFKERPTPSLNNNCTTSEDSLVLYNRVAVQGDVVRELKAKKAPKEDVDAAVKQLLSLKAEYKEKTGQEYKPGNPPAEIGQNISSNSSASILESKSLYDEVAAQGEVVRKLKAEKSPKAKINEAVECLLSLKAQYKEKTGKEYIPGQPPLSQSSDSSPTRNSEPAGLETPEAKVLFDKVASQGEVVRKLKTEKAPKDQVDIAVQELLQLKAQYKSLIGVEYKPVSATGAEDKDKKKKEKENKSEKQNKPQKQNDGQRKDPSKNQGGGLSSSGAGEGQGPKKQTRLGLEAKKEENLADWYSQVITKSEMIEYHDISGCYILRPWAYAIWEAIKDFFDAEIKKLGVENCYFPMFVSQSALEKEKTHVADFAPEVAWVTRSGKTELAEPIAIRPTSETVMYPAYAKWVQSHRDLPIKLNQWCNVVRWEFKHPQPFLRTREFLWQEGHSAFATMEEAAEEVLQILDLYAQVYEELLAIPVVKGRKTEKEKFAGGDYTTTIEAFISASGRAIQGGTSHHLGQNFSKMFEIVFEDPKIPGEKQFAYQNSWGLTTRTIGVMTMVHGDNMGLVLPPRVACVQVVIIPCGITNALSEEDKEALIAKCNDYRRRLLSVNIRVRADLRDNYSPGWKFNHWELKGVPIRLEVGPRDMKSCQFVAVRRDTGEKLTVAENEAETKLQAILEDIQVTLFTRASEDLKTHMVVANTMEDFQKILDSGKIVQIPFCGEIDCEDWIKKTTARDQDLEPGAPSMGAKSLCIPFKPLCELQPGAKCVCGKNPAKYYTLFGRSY
UniProt P15311, whole entry, looked up: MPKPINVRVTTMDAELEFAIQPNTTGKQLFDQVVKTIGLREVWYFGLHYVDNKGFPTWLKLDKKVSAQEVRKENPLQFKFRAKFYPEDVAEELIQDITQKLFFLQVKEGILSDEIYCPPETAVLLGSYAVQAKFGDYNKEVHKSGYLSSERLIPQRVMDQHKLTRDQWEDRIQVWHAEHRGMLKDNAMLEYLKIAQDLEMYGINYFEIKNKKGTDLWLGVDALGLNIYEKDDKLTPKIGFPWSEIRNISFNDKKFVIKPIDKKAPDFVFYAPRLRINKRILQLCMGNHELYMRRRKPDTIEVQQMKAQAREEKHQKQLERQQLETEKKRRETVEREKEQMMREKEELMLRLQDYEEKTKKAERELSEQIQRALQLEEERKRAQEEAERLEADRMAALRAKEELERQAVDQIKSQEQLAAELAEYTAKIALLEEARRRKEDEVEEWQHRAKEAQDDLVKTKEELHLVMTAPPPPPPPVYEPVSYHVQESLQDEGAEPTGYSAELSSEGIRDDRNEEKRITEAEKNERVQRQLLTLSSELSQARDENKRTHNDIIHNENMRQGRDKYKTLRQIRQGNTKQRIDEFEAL
UniProt P11274: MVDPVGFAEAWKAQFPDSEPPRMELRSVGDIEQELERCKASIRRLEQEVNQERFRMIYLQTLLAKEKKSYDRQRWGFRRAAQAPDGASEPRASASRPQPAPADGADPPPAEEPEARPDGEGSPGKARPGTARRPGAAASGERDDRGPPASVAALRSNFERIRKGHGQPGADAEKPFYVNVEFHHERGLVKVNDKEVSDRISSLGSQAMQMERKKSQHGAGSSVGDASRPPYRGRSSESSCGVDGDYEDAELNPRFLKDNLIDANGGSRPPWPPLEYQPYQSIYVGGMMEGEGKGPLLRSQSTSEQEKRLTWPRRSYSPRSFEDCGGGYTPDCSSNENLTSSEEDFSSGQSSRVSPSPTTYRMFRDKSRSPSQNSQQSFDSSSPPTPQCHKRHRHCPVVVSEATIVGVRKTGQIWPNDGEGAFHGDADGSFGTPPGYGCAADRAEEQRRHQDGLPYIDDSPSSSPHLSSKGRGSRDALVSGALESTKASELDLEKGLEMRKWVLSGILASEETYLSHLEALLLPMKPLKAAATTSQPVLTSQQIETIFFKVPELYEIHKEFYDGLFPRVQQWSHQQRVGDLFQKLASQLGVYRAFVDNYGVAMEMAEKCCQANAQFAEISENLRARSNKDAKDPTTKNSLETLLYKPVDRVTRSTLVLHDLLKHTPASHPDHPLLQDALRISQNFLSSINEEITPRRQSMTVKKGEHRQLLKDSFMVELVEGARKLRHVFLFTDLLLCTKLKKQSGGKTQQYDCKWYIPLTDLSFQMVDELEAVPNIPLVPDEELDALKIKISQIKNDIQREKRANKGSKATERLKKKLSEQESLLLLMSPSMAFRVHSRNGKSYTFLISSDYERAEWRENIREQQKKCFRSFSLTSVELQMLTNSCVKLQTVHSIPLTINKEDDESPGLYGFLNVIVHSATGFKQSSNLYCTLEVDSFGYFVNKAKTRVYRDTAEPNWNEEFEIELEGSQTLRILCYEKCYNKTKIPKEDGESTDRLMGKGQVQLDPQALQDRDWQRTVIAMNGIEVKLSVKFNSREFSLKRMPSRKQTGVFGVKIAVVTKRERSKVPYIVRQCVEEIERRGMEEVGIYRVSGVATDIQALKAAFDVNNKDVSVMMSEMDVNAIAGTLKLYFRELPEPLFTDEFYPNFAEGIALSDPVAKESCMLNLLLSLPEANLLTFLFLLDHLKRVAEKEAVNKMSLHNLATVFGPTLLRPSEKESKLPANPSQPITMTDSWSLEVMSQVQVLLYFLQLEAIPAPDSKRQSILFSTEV
UniProt P12081: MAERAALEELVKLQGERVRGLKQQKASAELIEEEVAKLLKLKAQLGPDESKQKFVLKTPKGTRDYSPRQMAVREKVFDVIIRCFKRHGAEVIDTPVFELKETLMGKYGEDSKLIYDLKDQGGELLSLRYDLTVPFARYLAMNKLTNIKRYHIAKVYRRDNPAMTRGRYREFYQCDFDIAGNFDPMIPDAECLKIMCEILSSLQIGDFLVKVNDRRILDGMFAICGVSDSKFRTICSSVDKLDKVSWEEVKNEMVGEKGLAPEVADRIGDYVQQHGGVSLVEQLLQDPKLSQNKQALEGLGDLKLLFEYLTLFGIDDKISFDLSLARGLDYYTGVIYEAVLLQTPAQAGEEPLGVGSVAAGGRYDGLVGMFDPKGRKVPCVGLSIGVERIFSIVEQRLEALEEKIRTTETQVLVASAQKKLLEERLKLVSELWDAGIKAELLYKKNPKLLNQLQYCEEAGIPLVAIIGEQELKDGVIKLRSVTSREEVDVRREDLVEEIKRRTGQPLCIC

Most of the targets with a hit are listed elsewhere, so they are rarer here than in the full data. The data scatter; read single values as rough. The list shows a part of the results, in another mix than the full data.

Compound in this experiment: COC(=O)/C=C/c1ccccc1 [methyl cinnamate]
Put plainly: log2 ratio of iodoacetamide-alkyne labeling of the cysteine site, DMSO over compound (competition); higher = stronger covalent engagement of the cysteine by the compound, active = 1 or more. To be noted: 500 µM; treatment time 1 h; system: HEK293T cell lysate. A digest of the protocol: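 Electrophile (500 µM) or vehicle was added to HEK293T lysate (2 mg/mL) for 1 h at ambient temperature before iodoacetamide alkyne labelling (1 h) and click coupling to sCIP-TMT reagents. After pooling, overnight trypsin digestion at 37 °C, streptavidin enrichment and acid elution, peptides were measured by Orbitrap Eclipse LC-MS/MS with FAIMS and quantified in FragPipe. Each cysteine's log2 competition ratio compares mean control-channel with mean compound-channel reporter intensity, control over compound. Data came from duplicate channels across three replicates, excluding cysteines quantified in only one replicate.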
With EEF2 C466 (UniProt P13639), the “log2 ratio of iodoacetamide-alkyne labeling” value (“log2 ratio” for short) was inactive: -0.0963.
For PYGB C326 (UniProt P11216), the “log2 ratio” value is inactive: -0.181.
For the target CAPN2 C341 (UniProt P17655), the “log2 ratio” value is inactive: -0.0456.
In the case of LTA4H C200 (UniProt P09960), the “log2 ratio” value is inactive: 0.382.
To G6PD C232 (UniProt P11413) belongs inactive: -0.06; to MTHFD2 C166 (UniProt P13995), inactive: 0.000124.
With CKMT1A C76 (UniProt P12532), the “log2 ratio” value was inactive: 0.27.
Consider UniProt P17812_C243, for which the “log2 ratio” value is inactive: -0.112.
LGALS1 C43 (UniProt P09382): the “log2 ratio” value was inactive: -0.195.
With HSPA8 C17 (UniProt P11142), the “log2 ratio” value was inactive: -0.154.
EPRS C680 (UniProt P07814): the “log2 ratio” value was inactive: 0.113.
To ASNS C255 (UniProt P08243) belongs inactive: -0.191; to IMPDH2 C173 (UniProt P12268), inactive: 0.0573; to HSP90AA1 C529 (UniProt P07900), inactive: -0.125.
To EZR C284 (UniProt P15311) belongs inactive: 0.0279; to CAPN2 C640 (UniProt P17655), inactive: 0.164; to BCR C395 (UniProt P11274), inactive: 0.326.
On to CAPN2 C39 (UniProt P17655), for which the “log2 ratio” value was inactive: 0.114.
As to HNRNPL C472 (UniProt P14866), the “log2 ratio” value was inactive: 0.146.
Then HARS C507 (UniProt P12081), with inactive: 0.0803; and ACTN1 C774 (UniProt P12814), with inactive: 0.227.
